Reference: paper PMC5732694
Results are given in words; binding and its absence hold for the method and conditions named. Binding seen in cells or lysates may run through a third protein. Some binding calls cover weakened binding; strength is not graded here.

The chains behind the UniProt entries cited, without tags or fusion partners.
UniProt Q13216: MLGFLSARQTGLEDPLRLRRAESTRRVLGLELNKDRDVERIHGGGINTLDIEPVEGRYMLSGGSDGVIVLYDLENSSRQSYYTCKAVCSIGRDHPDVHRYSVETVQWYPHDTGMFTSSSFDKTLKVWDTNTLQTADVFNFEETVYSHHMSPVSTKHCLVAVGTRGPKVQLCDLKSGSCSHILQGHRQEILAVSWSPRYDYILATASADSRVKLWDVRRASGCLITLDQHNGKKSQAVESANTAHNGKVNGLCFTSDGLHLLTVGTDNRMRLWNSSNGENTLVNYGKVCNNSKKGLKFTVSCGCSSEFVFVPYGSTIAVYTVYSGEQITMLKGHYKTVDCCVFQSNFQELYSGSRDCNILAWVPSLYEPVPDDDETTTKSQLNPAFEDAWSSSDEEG
UniProt O00429: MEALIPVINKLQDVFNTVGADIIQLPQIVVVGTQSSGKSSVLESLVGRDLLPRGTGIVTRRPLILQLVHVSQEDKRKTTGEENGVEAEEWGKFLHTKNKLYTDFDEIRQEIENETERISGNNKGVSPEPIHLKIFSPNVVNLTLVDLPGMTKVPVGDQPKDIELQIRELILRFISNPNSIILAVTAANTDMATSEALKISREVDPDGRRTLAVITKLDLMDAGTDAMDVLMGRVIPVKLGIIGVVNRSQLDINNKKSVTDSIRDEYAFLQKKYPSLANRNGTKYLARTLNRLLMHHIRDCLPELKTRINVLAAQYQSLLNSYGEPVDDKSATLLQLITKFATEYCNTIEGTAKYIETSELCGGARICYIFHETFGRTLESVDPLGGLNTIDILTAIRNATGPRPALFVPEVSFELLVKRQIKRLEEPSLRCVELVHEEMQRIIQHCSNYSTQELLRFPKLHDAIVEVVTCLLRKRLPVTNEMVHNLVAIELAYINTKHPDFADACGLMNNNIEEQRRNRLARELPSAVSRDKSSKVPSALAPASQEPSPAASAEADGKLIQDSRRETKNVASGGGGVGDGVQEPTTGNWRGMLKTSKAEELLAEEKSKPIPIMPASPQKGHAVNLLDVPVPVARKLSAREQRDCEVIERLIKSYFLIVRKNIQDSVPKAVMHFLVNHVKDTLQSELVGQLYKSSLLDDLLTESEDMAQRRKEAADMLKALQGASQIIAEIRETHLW

Experiments:
[1] = target: wild-type CSA protein tagged at the C-terminus with the Flag and HA epitopes (UniProt Q13216); assay: co-IP; tandem affinity purification (TAP): total extracts of 2x10^8 CS3BE-wtCSA cells, anti-Flag M2 affinity gel o.n. 4°C, elution with Flag peptide in TBS, then anti-HA agarose o.n. 4°C, washes with 1X IP low buffer, immunoblotting; cells in basal condition and after 20 µM CCCP; parental CS3BE cells as control
[2] = target: dynamin-related protein DRP1 (human (endogenous in CS3BE-wtCSA)) (UniProt O00429); assay: co-IP; total extracts of 2x10^7 cells immunoprecipitated with anti-Drp1 antibody (5 µg, o.n. 4°C) and protein A/G agarose beads, washes with 1X IP high buffer, immunoblotting; CS3BE and CS3BE-wtCSA cells

For “dynamin-related protein DRP1 (from UniProt O00429 1-736)”, the binding [1] was “binds”.
With “wild-type CSA protein tagged at the C-terminus with the Flag and HA epitopes (from UniProt Q13216 1-396)” the binding [2] was “binds”.
